Experimental data from US20180320217A1, “METHODS FOR SAMPLING AND MEASURING ORAL LAVAGE PROTEINS” (The Procter & Gamble Company, priority 2017, published 2018).

What was measured:
[1] = system: peptides in gingival brush samples; experiment: Protein and peptide profiling of gingival brush samples (LC-MS/MS), TABLE 23; format: in vivo, human; conditions: for Mean CntlBsl (peptide abundance) / Mean CntlWk3 (peptide abundance) / Mean Cntl Bsl / Mean Cntl Wk3: control regimen; for Mean CntlBsl (peptide abundance) / Mean TrtBsl (peptide abundance) / Mean Cntl Bsl / Mean TrtBsl: baseline; for Mean CntlBsl (peptide abundance) / Mean CntlWk3 (peptide abundance) / Mean TrtBsl (peptide abundance) / Mean TrtWk3 (peptide abundance): pooled gingival brush samples, LC-MS/MS; for Mean CntlWk3 (peptide abundance) / Mean TrtWk3 (peptide abundance) / Mean Cntl Wk3 / Mean TrtWk3: week 3; for Mean TrtBsl (peptide abundance) / Mean TrtWk3 (peptide abundance) / Mean TrtBsl / Mean TrtWk3: treatment regimen; for Mean Cntl Bsl / Mean Cntl Wk3 / Mean TrtBsl / Mean TrtWk3: peptide abundance, gingival brush samples
proteins in oral lavage = experiment: Abundance of proteins in human oral lavage (SomaLogic), TABLE 1; format: in vivo; conditions: for Means (Original Scale) High bleeder BL / Means (Original Scale) High bleeder W4 / Means (Original Scale) Low bleeder BL: abundance in oral lavage; for Means (Original Scale) High bleeder BL: high bleeders (gingivitis); for Means (Original Scale) High bleeder BL / Means (Original Scale) Low bleeder BL: baseline; for Means (Original Scale) High bleeder W4 / Fold Change High bleeder W4 vs High bleeder BL: high bleeders; for Means (Original Scale) High bleeder W4: week 4 of investigative products; for Means (Original Scale) Low bleeder BL: low bleeders (healthy); for Fold Change High bleeder BL vs Low bleeder BL / Fold Change High bleeder W4 vs High bleeder BL: oral lavage
[2] = high bleeders vs low bleeders at baseline
[3] = week 4 of investigative products vs baseline

Substance | Mean Cntl Bsl [1] | Mean Cntl Wk3 [1] | Mean TrtBsl [1] | Mean TrtWk3 [1] | also measured
S10A9_HUMAN |  |  |  |  | Mean CntlBsl (peptide abundance) [1]: 483769.1; Mean CntlWk3 (peptide abundance) [1]: 545150.1; Mean TrtBsl (peptide abundance) [1]: 411383.9; Mean TrtWk3 (peptide abundance) [1]: 648948.4
CH10_HUMAN | 336.8 | 1115.3 | 623.0 | 1546.4 | 
MYCB2_HUMAN | 9187.8 | 22635.4 | 8051.1 | 63943.8 | 
LYSC_HUMAN | 685.6 | 419.4 | 286.6 | 783.6 | 
EZR1_HUMAN | 13381.9 | 23893.0 |  | 29354.9 | 
1433S_HUMAN | 2008.9 | 4952.8 | 3283.7 | 6593.3 | 
PPIB_HUMAN | 1483.2 | 2313.8 | 424.1 | 1663.6 | 
CATG_HUMAN | 20293.9 | 17693.8 | 21478.2 | 12710.1 | 
WIBG_HUMAN | 3468.5 | 4789.6 | 3729.9 | 5686.7 | 
CAH1_HUMAN | 3.4 | 192.1 | 8.7 | 910.7 | 
DSC2_HUMAN | 11058.5 | 17241.0 | 9081.8 | 15742.8 | 
YBOX3_HUMAN |  |  |  |  | Mean CntlBsl (peptide abundance) [1]: 9414.4; Mean CntlWk3 (peptide abundance) [1]: 13549.8; Mean TrtBsl (peptide abundance) [1]: 8580.6; Mean TrtWk3 (peptide abundance) [1]: 15477.7
TRFE_HUMAN |  |  |  |  | Mean CntlBsl (peptide abundance) [1]: 9903.5; Mean CntlWk3 (peptide abundance) [1]: 11794.2; Mean TrtBsl (peptide abundance) [1]: 11823.8; Mean TrtWk3 (peptide abundance) [1]: 16197.3
GOGB1_HUMAN | 10960.0 | 14976.9 | 13618.7 | 16567.4 | 
RD23B_HUMAN |  |  |  |  | Mean CntlBsl (peptide abundance) [1]: 954.6; Mean CntlWk3 (peptide abundance) [1]: 2401.6; Mean TrtBsl (peptide abundance) [1]: 2542.4; Mean TrtWk3 (peptide abundance) [1]: 3945.9
TPIS_HUMAN |  |  |  |  | Mean CntlBsl (peptide abundance) [1]: 4301.4; Mean CntlWk3 (peptide abundance) [1]: 7296.5; Mean TrtBsl (peptide abundance) [1]: 4916.5; Mean TrtWk3 (peptide abundance) [1]: 9475.5
DNJB1_HUMAN | 1670.3 | 1765.4 | 588.0 | 1472.7 | 
DESP_HUMAN | 7712.9 | 7628.8 | 5624.2 | 10059.4 | 
6PGD_HUMAN | 12758.4 | 18840.3 | 10096.9 | 20075.9 | 
HSP71_HUMAN | 21846.5 | 33255.0 | 30544.9 | 38078.3 | 
PPIA_HUMAN | 10474.4 | 13854.3 | 10876.4 | 16838.5 | 
CYC_HUMAN | 4147.6 | 6023.8 | 3784.4 | 7949.3 | 
PEPL_HUMAN | 6810.3 | 6172.7 | 8446.6 | 5882.9 | 

Substance | Mean Cntl Bsl [1] | Mean Cntl Wk3 [1] | Mean TrtBsl [1] | Mean TrtWk3 [1] | also measured
CO3_HUMAN | 7378.4 | 7432.8 | 6462.6 | 7987.3 | 
PDIA1_HUMAN | 14218.1 | 23271.7 | 17143.1 | 27359.8 | 
GP146_HUMAN | 9521.0 | 12181.9 | 7634.4 | 14633.5 | 
HBA_HUMAN | 36452.9 | 95049.1 | 44975.0 | 340255.2 | 
ENOA_HUMAN | 30252.6 | 45538.4 | 33697.9 | 71243.0 | 
GRP75_HUMAN |  |  |  |  | Mean CntlBsl (peptide abundance) [1]: 4681.5; Mean CntlWk3 (peptide abundance) [1]: 6879.2; Mean TrtBsl (peptide abundance) [1]: 5750.4; Mean TrtWk3 (peptide abundance) [1]: 8750.7
S10A8_HUMAN |  |  |  |  | Mean CntlBsl (peptide abundance) [1]: 38968.7; Mean CntlWk3 (peptide abundance) [1]: 41008.0; Mean TrtBsl (peptide abundance) [1]: 14185.0; Mean TrtWk3 (peptide abundance) [1]: 31460.6
LAMC1_HUMAN | 16571.0 | 6151.9 | 15872.0 | 7213.4 | 
PSME1_HUMAN | 1309.6 | 2136.1 | 479.7 | 1982.2 | 
PLEC_HUMAN | 17501.7 | 40865.7 | 23162.7 | 46143.6 | 
1433E_HUMAN | 3802.4 | 6194.2 | 2804.5 | 5713.5 | 
MYH9_HUMAN | 771.1 | 1533.5 | 875.8 | 1574.2 | 
TERA_HUMAN |  |  |  |  | Mean CntlBsl (peptide abundance) [1]: 5692.4; Mean CntlWk3 (peptide abundance) [1]: 9616.4; Mean TrtBsl (peptide abundance) [1]: 6262.0; Mean TrtWk3 (peptide abundance) [1]: 11337.6
ANXA2_HUMAN | 25612.4 | 43936.0 | 39545.4 | 50535.7 | 
CRNN_HUMAN | 309640.1 | 501133.9 | 295264.9 | 482761.2 | 
TCTP_HUMAN |  |  |  |  | Mean CntlBsl (peptide abundance) [1]: 1566.9; Mean CntlWk3 (peptide abundance) [1]: 2422.8; Mean TrtBsl (peptide abundance) [1]: 1438.3; Mean TrtWk3 (peptide abundance) [1]: 2941.9
ECM29_HUMAN | 68098.3 | 31331.7 | 83586.4 | 29450.7 | 
CALL3_HUMAN | 5891.9 | 12940.4 | 9733.9 | 15869.0 | 
HSPB1_HUMAN | 86986.6 | 56903.3 | 82641.1 | 47943.4 | 
HBB_HUMAN | 80565.4 | 252012.9 | 79546.8 | 1001395.5 | 
Collagen alpha-1(XXIII) chain |  |  |  |  | Means (Original Scale) High bleeder BL (proteins in oral lavage): 289; Means (Original Scale) High bleeder W4 (proteins in oral lavage): 174; Means (Original Scale) Low bleeder BL (proteins in oral lavage): 106; Fold Change High bleeder BL vs Low bleeder BL (proteins in oral lavage; [2]): 2.61; Fold Change High bleeder W4 vs High bleeder BL (proteins in oral lavage; [3]): 0.64
Ficolin-1 |  |  |  |  | Means (Original Scale) High bleeder BL (proteins in oral lavage): 5106; Means (Original Scale) High bleeder W4 (proteins in oral lavage): 1286; Means (Original Scale) Low bleeder BL (proteins in oral lavage): 329; Fold Change High bleeder BL vs Low bleeder BL (proteins in oral lavage; [2]): 6.22; Fold Change High bleeder W4 vs High bleeder BL (proteins in oral lavage; [3]): 0.57
Serine/threonine-protein kinase 16 |  |  |  |  | Means (Original Scale) High bleeder BL (proteins in oral lavage): 350; Means (Original Scale) High bleeder W4 (proteins in oral lavage): 231; Means (Original Scale) Low bleeder BL (proteins in oral lavage): 138; Fold Change High bleeder W4 vs High bleeder BL (proteins in oral lavage; week 4 of treatment vs baseline): 0.73; Fold Change High bleeder BL vs Low bleeder BL (proteins in oral lavage; high vs low bleeders at baseline): 2.31
